PubChem BioAssay AID1159584 | Peter MacCallum Cancer Centre – 2016
Screen: 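Genes whose loss is lethal only together with E-cadherin loss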 (primary screen). Cell system: human MCF10A breast epithelial cells, parental and CDH1-null. Reagent: siRNA against human genes. Measured: 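ATP luminescence (CellTiter-Glo) viability per line relative to mean mock wells over all plates, and the ratio of CDH1-null to parental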. Reading the numbers: CDH1-null / parental viability ratio: higher = CDH1-null cells survive relatively better than parental; CDH1-null viability vs mock: higher = more viable CDH1-null cells; parental viability vs mock: higher = more viable parental cells.
In all, the deposit lists about 18,000 reagents; shown is a part drawn at random. The record does not give: the amount of reagent, the time to read-out.

no.	Target gene	CDH1-null / parental viability ratio	CDH1-null viability vs mock (fraction of mock)	parental viability vs mock (fraction of mock)
1	SCARB2 (scavenger receptor class B member 2)	1.02	0.82	0.8
2	ACOT9 (acyl-CoA thioesterase 9)	0.99	0.73	0.74
3	NUDCD2 (NudC domain containing 2)	1.21	0.91	0.75
4	WNK4 (WNK lysine deficient protein kinase 4)	0.85	0.75	0.88
5	RPF2 (ribosome production factor 2 homolog)	0.7	0.45	0.64
6	CNTNAP1 (contactin associated protein 1)	1.03	1	0.97
7	RAI1 (retinoic acid induced 1)	1.03	0.68	0.66
8	RABGGTB (Rab geranylgeranyltransferase subunit beta)	1.48	0.8	0.54
9	PTPRJ (protein tyrosine phosphatase receptor type J)	1.54	0.8	0.52
10	SCRN2 (secernin 2)	1.19	1	0.84
11	ARK2N (arkadia (RNF111) N-terminal like PKA signaling regulator 2N)	1.1	1.08	0.98
12	EDDM3B (epididymal protein 3B)	1.33	0.77	0.58
13	AP1S1 (adaptor related protein complex 1 subunit sigma 1)	0.91	0.6	0.66
14	GTF2H5 (general transcription factor IIH subunit 5)	1.04	0.77	0.74
15	PCOLCE2 (procollagen C-endopeptidase enhancer 2)	1.03	0.66	0.64
16	IRF2BP2 (interferon regulatory factor 2 binding protein 2)	1.22	0.55	0.45
17	HAPLN3 (hyaluronan and proteoglycan link protein 3)	1.06	0.53	0.5
18	MCRS1 (microspherule protein 1)	0.96	0.77	0.8
19	ETV7 (ETS variant transcription factor 7)	0.82	0.66	0.8
20	SPPL3 (signal peptide peptidase like 3)	1.18	0.97	0.82
21	ATXN7L2 (ataxin 7 like 2)	0.95	0.76	0.8
22	KMT5A (lysine methyltransferase 5A)	0.9	0.72	0.8
23	THG1L (tRNA-histidine guanylyltransferase 1 like)	0.8	0.72	0.9
24	METTL1 (methyltransferase 1, tRNA methylguanosine)	0.92	0.77	0.84
25	HMGA1 (high mobility group AT-hook 1)	0.98	0.84	0.86
26	PREX2	0.97	0.56	0.58
27	DPP6 (dipeptidyl peptidase like 6)	1.12	0.92	0.82
28	LRRC4 (leucine rich repeat containing 4)	0.93	0.76	0.82

Part of the list above in another layout:
IRF2BP2 (interferon regulatory factor 2 binding protein 2)
- CDH1-null / parental viability ratio: 1.22
- CDH1-null viability vs mock (fraction of mock): 0.55
- parental viability vs mock (fraction of mock): 0.45

HAPLN3 (hyaluronan and proteoglycan link protein 3)
- CDH1-null / parental viability ratio: 1.06
- CDH1-null viability vs mock (fraction of mock): 0.53
- parental viability vs mock (fraction of mock): 0.5
